# In PMC12235220, “Cell‐Penetrating Peptide‐Based Triple Nanocomplex Enables Efficient Nuclear Gene Delivery in Chlamydomonas reinhardtii” (Biotechnology and Bioengineering, 2025):
# “Also recorded” adds a separate entry of the source.
# Test system: pChlamy4 plasmid DNA
# Assay: Electrophoretic mobility shift assay (EMSA) of nanocomplex formation with plasmid DNA
# Assay type: binding
# Settings: SV40/DNA ratios 0.1:1 to 20:1, 0.5 µg pChlamy4, 20 min, 1% agarose gel
substance,measurement,value
"PKKKRKV [SV40, simian virus 40 nuclear localization signal peptide, Rhodamine B at the N-terminus]",Complexation between SV40 NLS peptide and plasmid DNA,did not bind to plasmid DNA; also recorded: no complexation
